Article PMC12204631
No constants are given. Whether binding was seen depends on the method and setting. In cells and extracts the contact can be indirect. A yes stands for co-enrichment or nearness to the bait. Other partners may have been found. Where a sequence is shown, tags or fusion partners need not be part of it.

By UniProt entry, the sequences of proteins in these tests, tags left out.
UniProt P41819: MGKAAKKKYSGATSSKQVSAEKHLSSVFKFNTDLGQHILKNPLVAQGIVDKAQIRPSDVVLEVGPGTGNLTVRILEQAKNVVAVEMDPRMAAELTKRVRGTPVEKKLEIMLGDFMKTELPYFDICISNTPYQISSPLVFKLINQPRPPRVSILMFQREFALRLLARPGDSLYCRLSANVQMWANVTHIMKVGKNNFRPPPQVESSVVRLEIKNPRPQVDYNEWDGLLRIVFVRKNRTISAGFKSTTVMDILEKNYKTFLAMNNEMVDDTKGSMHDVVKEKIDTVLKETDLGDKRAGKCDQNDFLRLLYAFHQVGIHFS
UniProt P20676: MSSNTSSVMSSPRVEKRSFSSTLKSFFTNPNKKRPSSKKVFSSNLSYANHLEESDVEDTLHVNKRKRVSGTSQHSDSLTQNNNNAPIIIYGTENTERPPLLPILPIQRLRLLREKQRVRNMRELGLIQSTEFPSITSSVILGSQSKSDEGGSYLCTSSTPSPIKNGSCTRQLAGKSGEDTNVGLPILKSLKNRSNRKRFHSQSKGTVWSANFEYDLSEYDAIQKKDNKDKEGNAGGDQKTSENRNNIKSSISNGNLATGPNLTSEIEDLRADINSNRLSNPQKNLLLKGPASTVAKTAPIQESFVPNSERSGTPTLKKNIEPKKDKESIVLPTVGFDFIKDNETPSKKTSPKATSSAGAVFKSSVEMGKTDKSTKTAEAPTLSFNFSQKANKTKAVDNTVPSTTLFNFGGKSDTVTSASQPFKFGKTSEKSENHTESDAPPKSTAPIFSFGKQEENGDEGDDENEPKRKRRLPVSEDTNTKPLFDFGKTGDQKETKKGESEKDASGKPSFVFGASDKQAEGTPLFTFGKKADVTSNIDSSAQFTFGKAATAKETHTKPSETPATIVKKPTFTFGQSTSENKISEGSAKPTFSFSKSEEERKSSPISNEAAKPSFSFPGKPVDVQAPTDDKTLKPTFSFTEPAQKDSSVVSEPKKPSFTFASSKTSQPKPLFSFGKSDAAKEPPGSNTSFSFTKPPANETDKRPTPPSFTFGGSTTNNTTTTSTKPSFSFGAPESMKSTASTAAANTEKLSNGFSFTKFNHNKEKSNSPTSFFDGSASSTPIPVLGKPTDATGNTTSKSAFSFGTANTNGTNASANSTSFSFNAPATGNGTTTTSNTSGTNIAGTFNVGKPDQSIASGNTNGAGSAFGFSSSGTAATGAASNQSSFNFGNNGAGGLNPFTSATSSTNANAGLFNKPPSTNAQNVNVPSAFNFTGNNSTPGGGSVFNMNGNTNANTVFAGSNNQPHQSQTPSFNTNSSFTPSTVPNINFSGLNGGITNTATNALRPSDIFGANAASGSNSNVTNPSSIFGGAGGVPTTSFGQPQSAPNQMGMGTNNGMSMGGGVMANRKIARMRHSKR
UniProt P46959: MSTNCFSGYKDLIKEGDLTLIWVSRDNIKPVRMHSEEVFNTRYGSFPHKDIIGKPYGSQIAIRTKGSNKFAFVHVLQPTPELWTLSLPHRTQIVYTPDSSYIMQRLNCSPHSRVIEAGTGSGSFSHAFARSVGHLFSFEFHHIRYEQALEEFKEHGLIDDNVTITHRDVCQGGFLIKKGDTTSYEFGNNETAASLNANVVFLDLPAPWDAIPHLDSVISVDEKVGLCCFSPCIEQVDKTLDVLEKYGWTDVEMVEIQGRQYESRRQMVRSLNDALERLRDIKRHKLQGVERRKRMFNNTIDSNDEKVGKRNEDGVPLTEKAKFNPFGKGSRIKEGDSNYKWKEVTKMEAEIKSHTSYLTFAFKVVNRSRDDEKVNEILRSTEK
UniProt P38340: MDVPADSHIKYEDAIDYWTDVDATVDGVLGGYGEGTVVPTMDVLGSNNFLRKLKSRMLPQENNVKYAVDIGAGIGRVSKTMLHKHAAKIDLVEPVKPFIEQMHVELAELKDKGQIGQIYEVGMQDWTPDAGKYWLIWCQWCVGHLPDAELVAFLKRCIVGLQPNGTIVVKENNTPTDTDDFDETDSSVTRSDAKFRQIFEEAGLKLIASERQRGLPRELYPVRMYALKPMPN
UniProt P52593: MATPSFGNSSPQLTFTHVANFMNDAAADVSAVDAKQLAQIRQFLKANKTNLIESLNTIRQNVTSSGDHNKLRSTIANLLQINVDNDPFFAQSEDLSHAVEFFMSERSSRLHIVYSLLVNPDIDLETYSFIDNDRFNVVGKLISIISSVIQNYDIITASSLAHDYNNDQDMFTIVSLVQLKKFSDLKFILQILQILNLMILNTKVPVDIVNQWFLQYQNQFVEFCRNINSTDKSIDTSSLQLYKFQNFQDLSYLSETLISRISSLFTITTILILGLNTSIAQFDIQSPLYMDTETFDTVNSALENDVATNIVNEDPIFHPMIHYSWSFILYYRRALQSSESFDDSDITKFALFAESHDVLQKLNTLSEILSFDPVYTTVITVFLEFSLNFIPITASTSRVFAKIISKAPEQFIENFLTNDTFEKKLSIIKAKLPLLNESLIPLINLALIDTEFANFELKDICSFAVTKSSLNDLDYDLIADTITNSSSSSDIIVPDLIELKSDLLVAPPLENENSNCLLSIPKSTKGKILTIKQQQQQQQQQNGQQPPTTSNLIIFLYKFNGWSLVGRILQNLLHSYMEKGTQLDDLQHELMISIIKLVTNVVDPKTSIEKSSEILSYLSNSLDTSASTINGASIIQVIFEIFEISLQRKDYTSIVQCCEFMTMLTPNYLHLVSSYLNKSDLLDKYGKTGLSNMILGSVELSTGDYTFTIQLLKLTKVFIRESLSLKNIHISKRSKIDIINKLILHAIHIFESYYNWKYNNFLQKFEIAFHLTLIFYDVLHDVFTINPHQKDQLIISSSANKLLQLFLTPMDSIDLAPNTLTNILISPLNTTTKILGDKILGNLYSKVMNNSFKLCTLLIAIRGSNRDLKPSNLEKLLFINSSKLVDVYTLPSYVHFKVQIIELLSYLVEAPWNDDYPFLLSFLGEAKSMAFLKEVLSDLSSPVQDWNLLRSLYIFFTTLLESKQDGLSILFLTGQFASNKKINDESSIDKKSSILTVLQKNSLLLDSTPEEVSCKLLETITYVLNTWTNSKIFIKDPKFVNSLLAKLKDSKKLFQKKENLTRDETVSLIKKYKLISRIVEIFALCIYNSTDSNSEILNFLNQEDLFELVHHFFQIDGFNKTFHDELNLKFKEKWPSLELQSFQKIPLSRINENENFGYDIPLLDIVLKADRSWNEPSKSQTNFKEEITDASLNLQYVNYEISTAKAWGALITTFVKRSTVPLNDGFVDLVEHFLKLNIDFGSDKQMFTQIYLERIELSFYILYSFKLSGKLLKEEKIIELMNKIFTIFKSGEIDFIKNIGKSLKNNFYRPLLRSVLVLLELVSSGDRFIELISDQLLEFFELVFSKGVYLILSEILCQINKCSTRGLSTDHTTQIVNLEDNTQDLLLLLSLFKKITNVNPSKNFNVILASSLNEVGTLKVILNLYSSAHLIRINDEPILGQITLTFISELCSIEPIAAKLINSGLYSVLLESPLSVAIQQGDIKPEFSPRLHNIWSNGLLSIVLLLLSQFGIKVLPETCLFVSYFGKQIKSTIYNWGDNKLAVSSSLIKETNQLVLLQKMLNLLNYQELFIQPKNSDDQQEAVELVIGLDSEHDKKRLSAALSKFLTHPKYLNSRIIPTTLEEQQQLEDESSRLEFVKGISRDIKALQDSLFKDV
UniProt P48837: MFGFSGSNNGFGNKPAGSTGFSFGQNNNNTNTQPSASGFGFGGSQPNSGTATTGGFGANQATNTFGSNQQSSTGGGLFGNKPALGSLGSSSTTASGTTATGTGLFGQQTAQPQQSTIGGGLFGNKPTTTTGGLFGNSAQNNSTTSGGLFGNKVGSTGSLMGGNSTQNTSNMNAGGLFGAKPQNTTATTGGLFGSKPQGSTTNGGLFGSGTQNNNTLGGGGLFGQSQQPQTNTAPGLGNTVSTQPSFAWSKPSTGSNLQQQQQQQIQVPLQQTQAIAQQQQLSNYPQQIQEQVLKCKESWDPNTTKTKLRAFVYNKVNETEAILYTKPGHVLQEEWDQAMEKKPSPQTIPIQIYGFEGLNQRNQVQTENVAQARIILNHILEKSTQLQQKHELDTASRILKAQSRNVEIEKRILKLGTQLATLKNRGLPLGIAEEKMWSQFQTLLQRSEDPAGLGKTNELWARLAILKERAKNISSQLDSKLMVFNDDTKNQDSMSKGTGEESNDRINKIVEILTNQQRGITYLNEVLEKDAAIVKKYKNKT
UniProt Q12495: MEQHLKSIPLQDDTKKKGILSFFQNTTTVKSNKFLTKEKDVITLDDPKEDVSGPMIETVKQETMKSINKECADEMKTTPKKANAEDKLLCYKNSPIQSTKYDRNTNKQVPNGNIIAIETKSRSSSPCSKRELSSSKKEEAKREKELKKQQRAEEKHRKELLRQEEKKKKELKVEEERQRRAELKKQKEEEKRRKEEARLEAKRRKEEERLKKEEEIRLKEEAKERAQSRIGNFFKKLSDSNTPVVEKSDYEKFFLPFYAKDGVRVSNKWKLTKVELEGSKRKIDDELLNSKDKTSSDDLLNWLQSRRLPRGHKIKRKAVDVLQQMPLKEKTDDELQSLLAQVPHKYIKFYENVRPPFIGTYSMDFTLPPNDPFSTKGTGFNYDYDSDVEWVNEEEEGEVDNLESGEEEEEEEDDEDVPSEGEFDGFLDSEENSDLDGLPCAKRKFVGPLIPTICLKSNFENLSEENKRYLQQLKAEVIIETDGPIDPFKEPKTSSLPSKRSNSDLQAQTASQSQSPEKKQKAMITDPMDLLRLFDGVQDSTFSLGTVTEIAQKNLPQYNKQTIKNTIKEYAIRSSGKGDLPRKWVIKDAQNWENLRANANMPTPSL
UniProt P06785: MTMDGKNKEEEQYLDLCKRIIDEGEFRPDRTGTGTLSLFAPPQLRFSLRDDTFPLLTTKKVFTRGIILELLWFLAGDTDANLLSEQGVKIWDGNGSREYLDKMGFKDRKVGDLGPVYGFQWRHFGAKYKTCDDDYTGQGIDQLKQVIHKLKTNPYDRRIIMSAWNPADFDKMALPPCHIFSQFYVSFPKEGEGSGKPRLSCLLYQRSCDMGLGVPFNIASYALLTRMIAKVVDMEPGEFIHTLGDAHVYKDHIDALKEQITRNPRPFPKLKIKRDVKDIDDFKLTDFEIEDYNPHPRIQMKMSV
UniProt Q12262: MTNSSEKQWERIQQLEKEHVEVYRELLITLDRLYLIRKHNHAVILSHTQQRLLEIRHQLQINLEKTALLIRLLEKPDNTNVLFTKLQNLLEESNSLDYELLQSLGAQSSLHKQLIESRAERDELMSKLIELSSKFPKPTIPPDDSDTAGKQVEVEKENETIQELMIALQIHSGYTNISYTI
UniProt P13712: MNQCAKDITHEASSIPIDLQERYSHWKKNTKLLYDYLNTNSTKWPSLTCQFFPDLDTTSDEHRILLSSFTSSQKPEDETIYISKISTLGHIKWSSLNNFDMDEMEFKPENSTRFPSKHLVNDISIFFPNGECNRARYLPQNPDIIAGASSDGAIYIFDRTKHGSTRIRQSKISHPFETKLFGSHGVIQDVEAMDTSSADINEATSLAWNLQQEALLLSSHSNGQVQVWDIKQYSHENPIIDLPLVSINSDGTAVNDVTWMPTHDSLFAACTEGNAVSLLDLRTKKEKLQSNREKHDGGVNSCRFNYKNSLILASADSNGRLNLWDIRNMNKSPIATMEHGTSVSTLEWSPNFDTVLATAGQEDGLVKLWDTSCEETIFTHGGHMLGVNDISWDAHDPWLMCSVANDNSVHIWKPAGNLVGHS
UniProt P38903: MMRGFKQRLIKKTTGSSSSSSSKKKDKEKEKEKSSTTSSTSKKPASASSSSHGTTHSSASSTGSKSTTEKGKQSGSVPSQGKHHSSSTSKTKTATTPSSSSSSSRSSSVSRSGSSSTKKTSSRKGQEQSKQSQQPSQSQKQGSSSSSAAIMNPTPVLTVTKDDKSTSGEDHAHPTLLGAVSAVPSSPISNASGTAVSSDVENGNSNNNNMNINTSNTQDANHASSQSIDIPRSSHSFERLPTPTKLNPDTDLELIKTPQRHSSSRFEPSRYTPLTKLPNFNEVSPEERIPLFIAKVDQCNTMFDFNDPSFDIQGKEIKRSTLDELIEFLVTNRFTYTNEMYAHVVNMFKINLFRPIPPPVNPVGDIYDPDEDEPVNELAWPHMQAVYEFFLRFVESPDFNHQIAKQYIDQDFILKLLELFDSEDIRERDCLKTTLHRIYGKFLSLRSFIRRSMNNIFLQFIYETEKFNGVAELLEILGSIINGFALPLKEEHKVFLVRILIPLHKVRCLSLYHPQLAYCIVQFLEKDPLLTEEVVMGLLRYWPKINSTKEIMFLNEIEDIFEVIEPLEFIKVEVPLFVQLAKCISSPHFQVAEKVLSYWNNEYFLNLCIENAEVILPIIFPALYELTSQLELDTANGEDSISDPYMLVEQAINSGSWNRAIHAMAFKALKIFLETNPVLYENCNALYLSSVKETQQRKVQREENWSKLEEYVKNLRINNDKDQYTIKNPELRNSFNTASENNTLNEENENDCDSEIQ

These substances were tested against T1, 6HIS-HA-JHD2 (S. cerevisiae) (UniProt P47156) (assay: affinity purification with mass spectrometry; whole cell extracts of a wild-type strain with 6HIS-HA-JHD2 induced from the GAL1 promoter for 6 hours; Ni-NTA agarose and anti-HA agarose beads at 4°C for 24 hours; proteins found with the empty vector strain excluded).
T1 sequence: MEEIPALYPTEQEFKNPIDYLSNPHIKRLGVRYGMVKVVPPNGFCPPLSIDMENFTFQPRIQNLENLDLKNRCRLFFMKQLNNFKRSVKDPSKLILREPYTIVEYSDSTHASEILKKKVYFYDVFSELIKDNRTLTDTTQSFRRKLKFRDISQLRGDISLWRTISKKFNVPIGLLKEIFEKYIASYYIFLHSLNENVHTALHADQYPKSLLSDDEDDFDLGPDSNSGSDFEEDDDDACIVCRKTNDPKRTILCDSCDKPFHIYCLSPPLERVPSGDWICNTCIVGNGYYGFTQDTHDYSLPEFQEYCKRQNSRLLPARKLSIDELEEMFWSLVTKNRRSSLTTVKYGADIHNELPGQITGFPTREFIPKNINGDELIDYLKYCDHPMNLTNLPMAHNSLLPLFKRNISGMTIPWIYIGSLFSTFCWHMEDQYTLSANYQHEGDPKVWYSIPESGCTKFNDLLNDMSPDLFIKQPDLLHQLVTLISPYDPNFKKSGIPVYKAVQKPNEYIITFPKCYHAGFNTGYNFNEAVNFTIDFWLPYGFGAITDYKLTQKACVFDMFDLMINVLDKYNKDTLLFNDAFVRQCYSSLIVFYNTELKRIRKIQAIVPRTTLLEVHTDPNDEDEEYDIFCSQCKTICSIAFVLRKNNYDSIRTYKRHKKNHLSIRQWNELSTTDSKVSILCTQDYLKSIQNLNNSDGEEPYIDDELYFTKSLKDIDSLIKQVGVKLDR
In the case of NUP82 (from UniProt P40368 1-713), the binding is reported as “binds”. With NUP2 (from UniProt P32499 1-720) the binding was “binds”. DIM1 (from UniProt P41819 1-318) was tested, and the binding was “binds”. With NUP1 (from UniProt P20676 1-1076) the binding was “binds”. For MLP1 (from UniProt Q02455 1-1875), the binding was “binds”. In the case of CBF1 (from UniProt P17106 1-351), the binding is reported as “binds”. In the case of RIF1 (from UniProt P29539 1-1916), the binding is reported as “binds”. With NUF2 (from UniProt P33895 1-451) the binding was “binds”. In the case of GCD14 (from UniProt P46959 1-383), the binding is reported as “binds”. SCM3 (from UniProt Q12334 1-223) was tested, and the binding was “binds”. In the case of TAE1 (from UniProt P38340 1-232), the binding is reported as “binds”. For DSK2 (from UniProt P48510 1-373), the binding was “binds”. In the case of NUP145, the binding is reported as “binds”. With TRM8 (from UniProt Q12009 1-286) the binding was “binds”. For NUP188 (from UniProt P52593 1-1655), the binding was “binds”. With MAD2 (from UniProt P40958 1-196) the binding was “binds”. In the case of ABD1 (from UniProt P32783 1-436), the binding is reported as “binds”. For POM152 (from UniProt P39685 1-1337), the binding was “binds”. For NUP57 (from UniProt P48837 1-541), the binding was “binds”. NUP42 (from UniProt P49686 1-430) was tested, and the binding was “binds”. With RLF2 (from UniProt Q12495 1-606) the binding was “binds”. In the case of Bni1 (from UniProt P41832 1-1953), the binding is reported as “binds”. CDC21 (from UniProt P06785 1-304) was tested, and the binding was “binds”. With SFH1 (from UniProt Q06168 1-426) the binding was “binds”. For NUP170 (from UniProt P38181 1-1502), the binding was “binds”. For MCM16 (from UniProt Q12262 1-181), the binding was “binds”. MSI1 (from UniProt P13712 1-422) was tested, and the binding was “binds”. SPC24 (from UniProt Q04477 1-213) was tested, and the binding was “binds”. NUP159 (from UniProt P40477 1-1460) was tested, and the binding was “binds”. For NUP100 (from UniProt Q02629 1-959), the binding was “binds”. CEP3 (from UniProt P40969 1-608) was tested, and the binding was “binds”. NUP157 (from UniProt P40064 1-1391) was tested, and the binding was “binds”. TRM1 was tested, and the binding was “binds”. With CAC2 (from UniProt Q04199 1-468) the binding was “binds”. In the case of NUP49 (from UniProt Q02199 1-472), the binding is reported as “binds”. In the case of NUP192 (from UniProt P47054 1-1683), the binding is reported as “binds”. In the case of NIC96 (from UniProt P34077 1-839), the binding is reported as “binds”. With RTS1 (from UniProt P38903 1-757) the binding was “binds”. SMC3 (from UniProt P47037 1-1230) was tested, and the binding was “binds”.
